PubChem BioAssay AID602196, INSERM | 2012

- Screen: 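Modifiers of cisplatin sensitivity in A549 cells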
- Cells: human A549 lung cancer cells
- Reagent: siRNA pair against human genes
- Time to read-out: 48 h transfection before cisplatin; time from cisplatin to read-out not stated
- Conditions: cisplatin at a dose killing half of control-siRNA cells; exact dose and duration not given
- Measurement: 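Shift in cisplatin death relative to control siRNA, from -50 (all cells die) to +50 (no cells die); siRNAs harmful on their own scored 0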
- Scale: two-siRNA summed score (-2 to +2): higher = both siRNAs protect from cisplatin killing; -2 means both sensitise
- Hit rule: 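Each siRNA scores 0 if harmful alone by LDH or WST-1, otherwise +1 if it reduces and -1 if it increases cisplatin killing; a gene is active when both siRNAs agree (sum +2 or -2)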
- Calls: active = both siRNAs shift cisplatin killing the same way; inactive = no consistent shift, or siRNA harmful alone
In all, the deposit lists about 23,000 reagents; this is an unselected part. Over the whole deposit, 455 (2%) got an active call. 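Active includes both protection and sensitisation; some change values fall well beyond the stated -50 to +50 range.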 Reagents against one gene are numbered here. Further read-outs or replicates are left out here. Reagent sequences are not shown. The record does not give: the amount of reagent.

With ABI2, what does the deposit list?
two-siRNA summed score (-2 to +2): 0; outcome: inactive

For SLC35B2, how do the results read?
two-siRNA summed score (-2 to +2): -1; outcome: inactive

What is on record for MAD2L1?
two-siRNA summed score (-2 to +2): 0; outcome: inactive

For LOC442069, what was measured?
two-siRNA summed score (-2 to +2): 1; outcome: inactive

What did the screen give for LOC401204?
two-siRNA summed score (-2 to +2): 0; outcome: inactive

How did the screen score KIAA0794?
two-siRNA summed score (-2 to +2): -1; outcome: inactive

How did the screen score LOC399921?
two-siRNA summed score (-2 to +2): 0; outcome: inactive

What is on record for FLJ00193?
two-siRNA summed score (-2 to +2): 0; outcome: inactive

What is on record for ABI1 #1?
two-siRNA summed score (-2 to +2): 0; outcome: inactive

How did the screen score ABI1 #2?
two-siRNA summed score (-2 to +2): 0; outcome: inactive

With ARFGAP3, how do the results read?
two-siRNA summed score (-2 to +2): 0; outcome: inactive

How did the screen score FAM216B?
two-siRNA summed score (-2 to +2): 0; outcome: inactive

Part of the list above, set out differently:
{"gene": "ARFGAP3", "reagent": 1, "two-siRNA summed score (-2 to +2)": 0, "outcome": "inactive"}
{"gene": "FAM216B", "reagent": 1, "two-siRNA summed score (-2 to +2)": 0, "outcome": "inactive"}

Further records follow:
With NRSN2, what was measured?
two-siRNA summed score (-2 to +2): 0; outcome: inactive

With RAF1, what was measured?
two-siRNA summed score (-2 to +2): 0; outcome: inactive

What is on record for PATJ?
two-siRNA summed score (-2 to +2): -1; outcome: inactive

With SH3BP2, what was measured?
two-siRNA summed score (-2 to +2): -1; outcome: inactive

How did the screen score LOC390812?
two-siRNA summed score (-2 to +2): 0; outcome: inactive

With RPS5, how do the results read?
two-siRNA summed score (-2 to +2): 0; outcome: inactive

Which result is listed for XIAP?
two-siRNA summed score (-2 to +2): 0; outcome: inactive

Which result is listed for ATP5F1C?
two-siRNA summed score (-2 to +2): 0; outcome: inactive

What did the screen give for PRMT2?
two-siRNA summed score (-2 to +2): 0; outcome: inactive
